Variants at the background level are over-represented here.
B1: tRNA (parent)
chain: GUUCCGUUGGCGUAAUGGUAACGCGUCUCCCUCCUAAGGAGAAGACUGCGGGUUCGAGUCCCGUACGGAACG

Variants of: B1
Experiment: yeast fitness relative to wild type (ratio to wild type); higher = fitter; tRNA-Arg(CCU), competitive growth, 37 C, YPD
Method in brief: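 A pool of Saccharomyces cerevisiae strains, each with a tRNA-Arg(CCU) gene variant at the native genomic locus, was competed in YPD at 37°C for 24 hours across six parallel replicates. The variants had been chemically synthesised at a 3% per-site mutation rate over 69 sites, and gene amplicons before and after competition were read by 100-nucleotide paired-end sequencing. Darwinian fitness relative to wild type rested on changes in genotype frequencies. Genotypes required ≥ 100 starting reads, and estimates < 0.5 were set to 0.5.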

Q: For GUUCCGUUGGCGUAAUGGUAACGCGUCUCGUUCCUAAGGAGAAGACUGCGGGUUCGAGAACCCUACGGAACG [C30G C31U U59A C60A G63C], which yeast fitness is on record?
A: Its yeast fitness is ≤ 0.5.

Q: For GUUCCGUUGGCGUAAUGGUAACGCGUCUCGCUACUAAUGAGAAGACUGCGGGUUCGAGUCCCGUACGGAACG [C30G C33A G38U], which yeast fitness is on record?
A: The yeast fitness was ≤ 0.5.

Q: With GUUCCGUUGGCGUAAUGGUAACGCGUCUCGCUGUUAAGGAGUAGACUGCGGGUUCGAGUCCCGUACGGAACG [C30G C33G C34U A42U] as the variant, how does the yeast fitness read?
A: The yeast fitness was ≤ 0.5.

Q: Which yeast fitness does the source give for GUUCCGUUGGCGUAAUGGUAACGCGUCUCGCUGUUAAGGAGUAGACUGCGGGUUCGAGUCCCGUACGGUACG [C30G C33G C34U A42U A69U] here?
A: The yeast fitness was ≤ 0.5.

Q: For GUUCCGUUGGCGUAAUGGUAACGCGUCUCGCUUCUAAGGAGUGGACUCCGGGUUCGAGUCCCGUACGGAACG [C30G C33U A42U A43G G48C], which yeast fitness is on record?
A: Its yeast fitness is ≤ 0.5.

Q: With GUUCCGUUGGCGUAAUGGUAACGCGUCUCGCUCUUAAGGAGAAGCCUGCGGGGUCGAGUCGCGUACGGAACG [C30G C34U A45C U53G C61G] as the variant, how does the yeast fitness read?
A: Its yeast fitness is ≤ 0.5.

Q: For GUUCCGUUGGCGUAAUGGUAACGCGUCUCGCUCUUAAGGAGAAGAUUGCGGGUUCGAGUCACGUACGGAACG [C30G C34U C46U C61A], which yeast fitness is on record?
A: The yeast fitness was ≤ 0.5.

Q: With GUUCCGUUGGCGUAAUGGUAACGCGUCUCGCUCCUAAGGAGAAGAAUGCGGGUUCGAGUCCCGUACGGAGCG [C30G C46A A70G] as the variant, how does the yeast fitness read?
A: Its yeast fitness is 0.591.

Q: Which yeast fitness does the source give for GUUCCGUUGGCGUAAUGGUAACGCGUCUCGCUCCUAAGGAGAAGAAUGCGGGUUCGAGUCCGGUACGGAACG [C30G C46A C62G] here?
A: The yeast fitness was ≤ 0.5.

Q: Which yeast fitness does the source give for GUUCCGUUGGCGUAAUGGUAACGCGUCUCGCUCCUAAGGAGAAGAGUGCGGGCUCGGGUCCCGUACGGAACG [C30G C46G U53C A57G] here?
A: The yeast fitness was ≤ 0.5.

Q: For GUUCCGUUGGCGUAAUGGUAACGCGUCUCGCUCCUAAGGAGAAGACUGCGGGUUAGAGUCCCGUACGGAACG [C30G C55A], which yeast fitness is on record?
A: Its yeast fitness is ≤ 0.5.

Q: Which yeast fitness does the source give for GUUCCGUUGGCGUAAUGGUAACGCGUCUCGCUCCUAAGGAGAAGACUACGGGUUCGAGUCCCGUACGGAACG [C30G G48A] here?
A: The yeast fitness was 0.633.

Q: Which yeast fitness does the source give for GUUCCGUUGGCGUAAUGGUAACGCGUCUCGCUCCUAAGGAGAAGACUGCGGCUUCGAGUCCCCUACGGAACG [C30G G52C G63C] here?
A: Its yeast fitness is ≤ 0.5.

Q: For GUUCCGUUGGCGUAAUGGUAACGCGUCUCGCUCCUAAGGAGAAGACUGCGGGUUCGAGUCCCAUACGAAACG [C30G G63A G68A], which yeast fitness is on record?
A: The yeast fitness was ≤ 0.5.

Q: For GUUCCGUUGGCGUAAUGGUAACGCGUCUCGCCCCUAAGCAGAAGAGUGCGGGUUCGAGUCCCGUACGGAACG [C30G U32C G39C C46G], which yeast fitness is on record?
A: Its yeast fitness is ≤ 0.5.

Q: For GUUCCGUUGGCGUAAUGGUAACGCGUCUCUCUCCUGAGGAGAAGACUGCGGGUUCGAGUCGCGUACGGAACG [C30U A36G C61G], which yeast fitness is on record?
A: The yeast fitness was ≤ 0.5.

Q: Which yeast fitness does the source give for GUUCCGUUGGCGUAAUGGUAACGCGUCUCUCUCCUAGGGAGAAGACUGCGGGUUGGACUCCCGUACGGAACG [C30U A37G C55G G58C] here?
A: Its yeast fitness is ≤ 0.5.

Q: Which yeast fitness does the source give for GUUCCGUUGGCGUAAUGGUAACGCGUCUCUCUCCUAAGGAGCAGACUCCGGGUUCGAGUCCCGUCCGGAACG [C30U A42C G48C A65C] here?
A: The yeast fitness was ≤ 0.5.

Q: With GUUCCGUUGGCGUAAUGGUAACGCGUCUCUCUCCUAAGGAGAAGACUGCGGGUUCGAGUCCCGUACGGACCG [C30U A70C] as the variant, how does the yeast fitness read?
A: Its yeast fitness is 0.869.

Q: For GUUCCGUUGGCGUAAUGGUAACGCGUCUCUUUCCUAGGGAGAGGACUGCGGGUUCGAGUCCCGUACGGAACG [C30U C31U A37G A43G], which yeast fitness is on record?
A: The yeast fitness was ≤ 0.5.

Q: With GUUCCGUUGGCGUAAUGGUAACGCGUCUCUCUGCUAAGGAGAAGACCGCGGGUUCGAGUCCCGUCCGGAACG [C30U C33G U47C A65C] as the variant, how does the yeast fitness read?
A: The yeast fitness was ≤ 0.5.

Q: With GUUCCGUUGGCGUAAUGGUAACGCGUCUCUCUCUUAUGGAGAAGACUGCGGGUUCGAGUCCCGUACGAAACG [C30U C34U A37U G68A] as the variant, how does the yeast fitness read?
A: Its yeast fitness is ≤ 0.5.

Q: With GUUCCGUUGGCGUAAUGGUAACGCGUCUCUCUCUUAAGGAGAAGACUGCGGAUUCGAGUUCCGUACGGAACG [C30U C34U G52A C60U] as the variant, how does the yeast fitness read?
A: The yeast fitness was ≤ 0.5.

Q: For GUUCCGUUGGCGUAAUGGUAACGCGUCUCUCUCCUAAGGAGAAGAAUGCGGGUUCGAGUCCUGUACGGGACG [C30U C46A C62U A69G], which yeast fitness is on record?
A: Its yeast fitness is ≤ 0.5.

Q: Which yeast fitness does the source give for GUUCCGUUGGCGUAAUGGUAACGCGUCUCUCUCCUAAGGAGAAGACUGCGGGUUUGAGUCCCGUACGCAACG [C30U C55U G68C] here?
A: Its yeast fitness is ≤ 0.5.

Q: With GUUCCGUUGGCGUAAUGGUAACGCGUCUCUCUCCUAACGAGAAGACUGCGGGUUUGAGACCCGUACGGAACG [C30U G38C C55U U59A] as the variant, how does the yeast fitness read?
A: The yeast fitness was ≤ 0.5.

Q: With GUUCCGUUGGCGUAAUGGUAACGCGUCUCUCUCCUAAGAAGAAGACUGCGGGUUCGAGUCCCGUACGCAACG [C30U G39A G68C] as the variant, how does the yeast fitness read?
A: Its yeast fitness is ≤ 0.5.

Q: With GUUCCGUUGGCGUAAUGGUAACGCGUCUCUCUCCUAAGCAGAAGACUGCGGGUUCGAGUCCCGUACGGAACG [C30U G39C] as the variant, how does the yeast fitness read?
A: Its yeast fitness is 0.682.

Q: With GUUCCGUUGGCGUAAUGGUAACGCGUCUCUCUCCUAAGGAAAAGACAGCGGGUUCGAGUCCCGUACGGCACG [C30U G41A U47A A69C] as the variant, how does the yeast fitness read?
A: Its yeast fitness is ≤ 0.5.

Q: Which yeast fitness does the source give for GUUCCGUUGGCGUAAUGGUAACGCGUCUCUCUCCUAAGGAGAAGACUCCGGGUUCGAGUCCCGUGCGGAACG [C30U G48C A65G] here?
A: Its yeast fitness is 0.606.

Q: For GUUCCGUUGGCGUAAUGGUAACGCGUCUCUCUCCUAAGGAGAAGACUGCCGGUUAGAGUACCGUACGGAACG [C30U G50C C55A C60A], which yeast fitness is on record?
A: Its yeast fitness is ≤ 0.5.

Q: Which yeast fitness does the source give for GUUCCGUUGGCGUAAUGGUAACGCGUCUCUCUCCUAAGGAGAAGACUGCGGGUUCAAGUCCCGUACGGCACG [C30U G56A A69C] here?
A: The yeast fitness was 0.566.

Q: With GUUCCGUUGGCGUAAUGGUAACGCGUCUCUCUCCCAAGGAGAAGACUGCGGGUUAGAGUCACGUACGGAACG [C30U U35C C55A C61A] as the variant, how does the yeast fitness read?
A: The yeast fitness was ≤ 0.5.

Q: For GUUCCGUUGGCGUAAUGGUAACGCGUCUCUCUCCUAAGGAGAAGACAGCGGGUUCGAGUCCCGUACGGAGCG [C30U U47A A70G], which yeast fitness is on record?
A: The yeast fitness was ≤ 0.5.

Q: For GUUCCGUUGGCGUAAUGGUAACGCGUCUCUCUCCUAAGGAGAAGACUGCGGGUACGAGUCCCAUACGGAACG [C30U U54A G63A], which yeast fitness is on record?
A: The yeast fitness was 0.704.

Q: For GUUCCGUUGGCGUAAUGGUAACGCGUCUCCAUCCUUAGGCGAAGACUGCGGGUUCGAGUCCCGUACGGAACG [C31A A36U A40C], which yeast fitness is on record?
A: The yeast fitness was ≤ 0.5.

Q: Which yeast fitness does the source give for GUUCCGUUGGCGUAAUGGUAACGCGUCUCCAUCCUAAGGAGUUGACUGCGGGUUCGAGUCCCGUGCGAACCG [C31A A42U A43U A65G G68A A70C] here?
A: The yeast fitness was ≤ 0.5.

Q: For GUUCCGUUGGCGUAAUGGUAACGCGUCUCCAUCCUAAGGAGAAGCCUGCGGGUUCGAGUCCUAGACGGAACG [C31A A45C C62U G63A U64G], which yeast fitness is on record?
A: Its yeast fitness is ≤ 0.5.

— the RNAGym collection of RNA variant scans (doi:10.1126/science.aae0568)
